# In PubChem BioAssay AID2685 (National Center for Advancing Translational Sciences (NCATS), 2010):
# This is one part of the list. Further columns of the screen follow, without active or inactive calls. The list favours compounds with an active or inconclusive main result. Potencies come from curve fits of mixed quality, noted in brackets.
# Assay: qHTS Assay for Lipid Storage Modulators in Drosophila S3 Cells;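 on cell number change: cells counted by Cell Tracker Red CMTPX staining in the red channel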
# Conditions: BODIPY lipid droplet fluorescence, 18-24 h; for cell number change: measured here: cell count max response, cells fed with added oleic acid
# Method in brief: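 Drosophila S3 cells loaded with oleic acid (400 uM, as added) and compounds at several concentrations; lipid droplets imaged by 488-nm laser-scanning cytometry, 500–530 nm intensity and object ratio to cell channel. Percent activity normalized to 20 uM Triacsin C.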
# [1] = measured here: lipid fluorescence (Fed channel) AC50, cells fed with added oleic acid
# [2] = measured here: cell number channel AC50, cells fed with added oleic acid
Structure (SMILES),AC50 [1],cell number change [%],AC50 [2]
CN(C)c1ccc(N2C(=NC(=O)c3ccccc3)SC3CS(=O)(=O)CC32)cc1 (stereo not given),"29.1 µM [rising, single point]",,
CCCOc1ccc2c(=O)c(N3C(=O)c4ccccc4C3=O)c(C)oc2c1,"10.3 µM [falling, single point]",-31.6,"0.82 µM [falling, full curve, poor fit]"
Cc1nnc2c3ccccc3c(-c3cccs3)nn12,"5.17 µM [rising, full curve, poor fit]",0.814,"0.92 µM [rising, full curve, poor fit]"
CCCCCCCn1c(NC(=O)CC)nc2ccccc21,"29.1 µM [falling, single point]",-37.5,"18.4 µM [falling, single point]"
CCOC(=O)c1cc(NC(=O)Nc2cc(C)ccn2)c(C)nc1C,"29.1 µM [rising, single point]",65.3,"0.92 µM [rising, full curve]"
O=C(COc1ccccc1)Nc1cc(S(=O)(=O)N2CCOCC2)ccc1N1CCCC1,,-2.32,
O=C(Nc1cc(Cl)cc(Cl)c1)c1ccc(Cn2c(=O)[nH]c3ccsc3c2=O)cc1,"10.3 µM [falling, partial curve]",-61,"16.4 µM [falling, partial curve]"
Cc1cc2cc(CCNC(=O)c3ccc(S(=O)(=O)N4CCCC4)cc3)c(=O)[nH]c2cc1C,"9.2 µM [falling, partial curve, poor fit]",-18.1,
O=C1OC(c2ccccc2)Cc2cc(C(=O)N3CCN(c4ccc(F)cc4)CC3)ccc21 (stereo not given),,-16.2,
Cn1cc(Br)c(C(=O)Nc2c(F)c(F)c(F)c(F)c2F)n1,"16.4 µM [falling, single point]",75.8,"18.4 µM [rising, single point]"
COc1cccc(-c2cc(C(F)(F)F)n3ncc(C(=O)NCC4CCCO4)c3n2)c1 (stereo not given),,-29.8,"3.26 µM [falling, full curve, poor fit]"
O=C(NCCCN1CCCC1=O)c1ccccc1NS(=O)(=O)c1ccc(Br)cc1,,0.694,
O=C(CN1CCN(c2ccc(F)cc2)CC1)NC(=O)NCc1ccco1,,0.729,
CCn1c2ccccc2c2cnc(N=CN(C)C)c(C#N)c21,"0.116 µM [rising, partial curve]",-1.04,
COc1cc2c3nnc(-c4ccc(F)cc4)c-3cn(Cc3cccc(C)c3)c2cc1OC,"11.6 µM [falling, partial curve]",8.69,
Cc1nccn1-c1ccc(C(F)(F)F)cc1NC=O,,8.51,
O=C(CNC(=O)c1cccs1)c1ccc([N+](=O)[O-])cc1,"0.00411 µM [falling, full curve, poor fit]",-2.53,
COC(=O)c1[nH]c2ccccc2c1NC(=O)CN1CCCc2ccccc21,"32.6 µM [falling, partial curve, poor fit]",-62.7,"23.1 µM [falling, single point]"
Cn1nc(C(=O)OCC(=O)Nc2cc(Cl)ccc2C#N)c2ccccc2c1=O,"18.4 µM [falling, single point]",-49,"29.1 µM [falling, single point]"
Cc1ccc(-c2cc(C(=O)N/N=C/C=C/c3ccccc3)n[nH]2)o1,"3.66 µM [falling, single point]",-8.32,

Structure (SMILES),AC50 [1],cell number change [%],AC50 [2]
Cc1ccc(S(=O)(=O)N/N=C\c2cn(CC(N)=O)c3ccccc23)cc1,"29.1 µM [rising, single point]",17.8,
C/C(=N\OC(=O)c1ccc(C)cc1)c1sc(C)nc1C,,31.4,"20.6 µM [rising, single point]"
COC(=O)CCN(C(=O)c1ccc(N2CCCC2)c([N+](=O)[O-])c1)c1ccccn1,,,"0.731 µM [falling, single point]"
COC(=O)c1ccc(CNC(=O)COC(=O)c2ccc(N(C)C)cc2)cc1,,-90.5,"29.1 µM [falling, single point]"
Nc1nonc1-n1nnc(C(=O)N/N=C/c2cccc(O)c2)c1CN1CCCC1,"0.13 µM [falling, full curve, poor fit]",-18.7,
CCN1C(=O)c2ccc(C(=O)Nc3ccc(O)cc3C)cc2C1=O,"29.1 µM [falling, single point]",-20.7,
Cc1cccc(C(=O)OCC(=O)NCC(C)C)c1O,"11.6 µM [rising, partial curve]",94.5,"7.31 µM [rising, partial curve]"
CC(=O)c1cnc(SCCN2C(=O)c3ccccc3C2=O)nc1C,,15.1,
Cc1cccc(NC(=O)c2nc[nH]c2C(=O)NCc2ccccc2)c1,,-54.9,"4.11 µM [falling, single point]"
COC(=O)C1=C(C)NC(C)=C(C(=O)OC)C1c1ccc2ccccc2n1,"0.651 µM [rising, single point]",41.9,"18.4 µM [rising, single point]"
C=CCN(CC=C)S(=O)(=O)c1ccc(C(=O)Nc2nnc(COC)o2)cc1,"20.6 µM [falling, single point]",-67.7,"1.3 µM [falling, partial curve]"
Cc1nn(-c2ccccc2)c(N)c1C(c1ccc(C(C)C)cc1)c1c(C)nn(-c2ccccc2)c1N,"25.9 µM [rising, single point]",90.7,"29.1 µM [rising, single point]"
S=c1[nH]cc(-c2ccccc2)n1-c1cccc(Cl)c1,"32.6 µM [rising, partial curve, poor fit]",-37.8,"9.2 µM [falling, partial curve, poor fit]"
N#Cc1ccc2[nH]cc(CCO)c2c1,"29.1 µM [falling, single point]",-8.68,
Cc1nnc(SCC(=O)Nc2ccc3c(c2)OCCO3)n1N,"18.4 µM [falling, partial curve]",-29.6,"4.11 µM [falling, full curve, poor fit]"
S=c1[nH]nc(-c2ccc3ccccc3n2)o1,"0.116 µM [rising, full curve, poor fit]",83.1,"23.1 µM [rising, partial curve]"
O=C(Cc1ccccc1)N1CCN(C(=O)c2cccs2)CC1,,1.08,
CC(=O)c1cccc(NC(=O)Cn2cc3c(n2)CCCC3)c1,"16.4 µM [rising, single point]",25,
CCCc1nc(Nc2nc3ccccc3o2)nc(C)c1C(=O)OCC,,-18.4,
CC1=C(C)CC(C(=O)NCCc2ccccc2)C(C(=O)O)C1 (stereo not given),"5.8 µM [falling, partial curve]",,

# Exported bar-delimited: entries from further up.
Structure (SMILES) | AC50 [1] | cell number change [%] | AC50 [2]
CC(=O)c1cccc(NC(=O)Cn2cc3c(n2)CCCC3)c1 | 16.4 µM [rising, single point] | 25 | 
CCCc1nc(Nc2nc3ccccc3o2)nc(C)c1C(=O)OCC |  | -18.4 | 
CC1=C(C)CC(C(=O)NCCc2ccccc2)C(C(=O)O)C1 (stereo not given) | 5.8 µM [falling, partial curve] |  | 

# Additional results

Structure (SMILES),AC50 [1],cell number change [%],AC50 [2]
COC(=O)COC(=O)c1ccc(O)cc1,,-4.45,
O=C(CSc1nnnn1-c1ccccc1)Nc1ncc2c(n1)CC(c1ccco1)CC2=O (stereo not given),"0.082 µM [rising, full curve, poor fit]",-35.9,"7.31 µM [falling, partial curve]"
O=C(COC(=O)C1CCC1)Nc1cccc(Cl)c1,,-30.5,"1.3 µM [falling, full curve, poor fit]"
Cc1ccc(-n2ncc3c(=O)n(CC(=O)N(C)C)cnc32)cc1,"0.0731 µM [rising, full curve, poor fit]",19.9,
Nc1nnc(SCC(=O)NC23CC4CC(CC(C4)C2)C3)s1,,5.88,
NC(=O)NC(Cc1ccccc1)C(=O)NCCCSc1ccccc1 (stereo not given),"14.6 µM [rising, partial curve]",,
CC1Cc2cc(/C(O)=C3\C(=O)C(=O)N(CCN(C)C)C3c3ccccc3F)ccc2O1 (stereo not given),"29.1 µM [falling, single point]",-46.5,"2.59 µM [falling, full curve]"
COc1nccnc1NS(=O)(=O)c1ccc(NS(=O)(=O)c2ccc(NC(C)=O)cc2)cc1,"23.1 µM [rising, single point]",-47.9,"20.6 µM [falling, single point]"
CCn1c(-c2ccc(Cl)cc2)n[nH]c1=S,"25.9 µM [rising, single point]",53.3,"13 µM [rising, partial curve]"
O=c1cc(O)nc(SCc2ccccc2)n1-c1ccc(F)cc1,"0.116 µM [falling, full curve, poor fit]",-6.96,
Cc1cccc(NS(=O)(=O)c2cc3c(cc2C)N(C)CCO3)c1,,10.4,
CNC(=O)c1ccc2nc(NC(C)=O)sc2c1,,-59.8,"23.1 µM [falling, partial curve]"
O=C(C1CCCO1)N1CCN(C(=S)Nc2ccc(Cl)cc2Cl)CC1 (stereo not given),"2.31 µM [rising, partial curve, poor fit]",13.6,"0.146 µM [falling, full curve, poor fit]"
Cc1cc(O)c(/C=N/OCc2ccc(Cl)cc2Cl)c(=O)o1,,30.2,
CCC/C(O)=C1\C(=O)CCCC1=NCCc1c(C)[nH]c2ccc(C)cc12,"0.13 µM [rising, full curve, poor fit]",11,
Nc1ccc(S(=O)(=O)Nc2ccc(S(N)(=O)=O)cc2)cc1,"0.13 µM [falling, full curve, poor fit]",-5.68,
CCCCCCc1cc2cc(C(=O)OCC)c(=O)oc2cc1O,"0.13 µM [falling, full curve, poor fit]",-16.9,
Cc1c(C(=O)NCCSc2ccc(Cl)cc2)cccc1[N+](=O)[O-],"16.4 µM [rising, single point]",-20.3,
